These results are taken from paper PMC12012021.

Sequences of proteins named here, by UniProt entry; tags and fusion partners are left off.
UniProt Q9P286: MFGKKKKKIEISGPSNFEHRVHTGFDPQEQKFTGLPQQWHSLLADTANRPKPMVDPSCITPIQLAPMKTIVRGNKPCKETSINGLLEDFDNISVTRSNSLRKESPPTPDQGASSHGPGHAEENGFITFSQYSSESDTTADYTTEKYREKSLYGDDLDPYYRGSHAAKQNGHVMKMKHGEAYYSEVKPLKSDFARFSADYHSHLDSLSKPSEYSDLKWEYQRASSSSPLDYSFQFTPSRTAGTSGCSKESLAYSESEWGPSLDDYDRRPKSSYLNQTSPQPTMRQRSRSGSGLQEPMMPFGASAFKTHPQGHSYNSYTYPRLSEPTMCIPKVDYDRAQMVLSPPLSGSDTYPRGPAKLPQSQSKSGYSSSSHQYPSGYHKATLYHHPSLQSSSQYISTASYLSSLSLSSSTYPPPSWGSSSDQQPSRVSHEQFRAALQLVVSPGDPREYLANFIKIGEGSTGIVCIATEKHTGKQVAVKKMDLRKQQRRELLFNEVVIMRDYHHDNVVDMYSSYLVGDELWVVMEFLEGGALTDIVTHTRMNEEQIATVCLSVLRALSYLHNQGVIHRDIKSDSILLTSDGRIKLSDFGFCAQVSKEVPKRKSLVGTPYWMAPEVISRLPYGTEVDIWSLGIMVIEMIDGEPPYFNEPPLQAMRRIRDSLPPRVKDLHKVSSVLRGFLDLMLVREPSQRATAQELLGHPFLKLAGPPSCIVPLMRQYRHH

One experiment deals with T1, GST-METTL14 (human) (UniProt Q9HCE5).
T1 sequence: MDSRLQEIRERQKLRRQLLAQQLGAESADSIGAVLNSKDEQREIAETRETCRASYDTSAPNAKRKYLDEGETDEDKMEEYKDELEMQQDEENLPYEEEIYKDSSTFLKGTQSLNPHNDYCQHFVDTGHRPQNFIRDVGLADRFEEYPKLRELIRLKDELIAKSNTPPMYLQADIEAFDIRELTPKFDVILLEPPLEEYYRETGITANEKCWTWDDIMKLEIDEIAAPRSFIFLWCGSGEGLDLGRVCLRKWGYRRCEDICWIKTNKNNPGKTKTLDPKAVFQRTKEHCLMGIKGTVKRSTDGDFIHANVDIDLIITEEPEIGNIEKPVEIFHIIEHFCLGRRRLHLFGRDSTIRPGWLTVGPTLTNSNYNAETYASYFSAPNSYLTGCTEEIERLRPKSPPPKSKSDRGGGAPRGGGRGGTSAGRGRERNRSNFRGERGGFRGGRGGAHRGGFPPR
Description: pull-down; GST pulldown; details are referred to ref. 57.

Experiment [1] has as its target T2, FLAG-tagged METTL14 (human) (UniProt Q9HCE5).
T2 sequence: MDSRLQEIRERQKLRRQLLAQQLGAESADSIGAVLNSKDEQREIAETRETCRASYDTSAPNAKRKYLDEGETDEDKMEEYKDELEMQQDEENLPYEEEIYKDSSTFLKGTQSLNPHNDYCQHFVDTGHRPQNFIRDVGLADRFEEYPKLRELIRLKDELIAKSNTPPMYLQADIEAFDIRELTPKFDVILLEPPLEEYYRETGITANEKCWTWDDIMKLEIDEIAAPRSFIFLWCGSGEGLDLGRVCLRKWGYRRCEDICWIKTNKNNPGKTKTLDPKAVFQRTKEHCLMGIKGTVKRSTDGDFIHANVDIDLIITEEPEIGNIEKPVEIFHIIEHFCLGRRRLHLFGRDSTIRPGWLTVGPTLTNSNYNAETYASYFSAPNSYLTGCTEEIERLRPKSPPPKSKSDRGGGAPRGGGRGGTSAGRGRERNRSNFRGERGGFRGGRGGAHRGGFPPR
Description: co-IP; GFP-PAK5 and FLAG-METTL14 in HEK-293 cells; IP lysis buffer, Protein A/G agarose beads, overnight at 4 °C.

Experiment [2] addresses T3, METTL14 (human (endogenous in SK-BR-3)) (UniProt Q9HCE5).
T3 sequence: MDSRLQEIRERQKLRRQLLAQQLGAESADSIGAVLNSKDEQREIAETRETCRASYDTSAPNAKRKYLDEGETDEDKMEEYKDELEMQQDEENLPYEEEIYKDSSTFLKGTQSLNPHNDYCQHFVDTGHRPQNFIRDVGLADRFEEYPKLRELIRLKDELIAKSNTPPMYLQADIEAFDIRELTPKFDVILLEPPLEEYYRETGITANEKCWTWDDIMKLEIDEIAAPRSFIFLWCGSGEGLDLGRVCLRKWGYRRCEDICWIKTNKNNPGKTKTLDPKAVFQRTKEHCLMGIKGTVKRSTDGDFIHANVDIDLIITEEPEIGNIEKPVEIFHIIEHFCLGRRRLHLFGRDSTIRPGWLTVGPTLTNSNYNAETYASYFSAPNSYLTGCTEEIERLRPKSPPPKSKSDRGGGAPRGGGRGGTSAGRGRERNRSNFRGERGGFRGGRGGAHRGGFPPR
The experiment can be described thus: co-IP; endogenous proteins in SK-BR-3 cells; IP lysis buffer, Protein A/G agarose beads, overnight at 4 °C.

For experiment [3], the target named is HER2 (human (endogenous in SK-BR-3 and BT474)) (UniProt P04626). The experiment can be described thus: co-IP; IP and IB on cytoplasmic and nuclear protein extracts of SK-BR-3 cells; which of the two was precipitated is not told.
Experiment [4] has the same target. The experiment can be described thus: co-IP; IP and IB in SK-BR-3 cells transfected with the indicated plasmids (MALAT1 overexpression, Fig. 3G), in BT474 cells with FLAG vector or FLAG-PAK5 and MALAT1 siRNA or control (Fig. 3H), and in BT474 cells with PAK5 WT or PAK5 KM (Fig. 6K); Protein A/G agarose beads, overnight at 4 °C.

These are yes or no findings as the source states them, for the method shown. Binding seen in cells or lysates may run through a third protein. Some results given as binding are weak or reduced against the parent protein; the word gives no strength. For some assays here: Where a sequence is shown, tags or fusion partners need not be part of it.

Consider “PAK5 (as used in the GST pulldown) (from UniProt Q9P286 1-719) (enzyme)”, for which the binding result in the experiment with GST-METTL14 (human) was “binds”.
On to “GFP-tagged PAK5 (from UniProt Q9P286 1-719) (enzyme)”, for which, in experiment [1], the binding entry is “binds”.
Regarding “PAK5 (from UniProt Q9P286 1-719) (enzyme)”, in experiment [2], the binding result is recorded as “binds”.

B1: deubiquitinase USP8 (enzyme, UniProt P40818 1-1118)
chain: MPAVASVPKELYLSSSLKDLNKKTEVKPEKISTKSYVHSALKIFKTAEECRLDRDEERAYVLYMKYVTVYNLIKKRPDFKQQQDYFHSILGPGNIKKAVEEAERLSESLKLRYEEAEVRKKLEEKDRQEEAQRLQQKRQETGREDGGTLAKGSLENVLDSKDKTQKSNGEKNEKCETKEKGAITAKELYTMMTDKNISLIIMDARRMQDYQDSCILHSLSVPEEAISPGVTASWIEAHLPDDSKDTWKKRGNVEYVVLLDWFSSAKDLQIGTTLRSLKDALFKWESKTVLRNEPLVLEGGYENWLLCYPQYTTNAKVTPPPRRQNEEVSISLDFTYPSLEESIPSKPAAQTPPASIEVDENIELISGQNERMGPLNISTPVEPVAASKSDVSPIIQPVPSIKNVPQIDRTKKPAVKLPEEHRIKSESTNHEQQSPQSGKVIPDRSTKPVVFSPTLMLTDEEKARIHAETALLMEKNKQEKELRERQQEEQKEKLRKEEQEQKAKKKQEAEENEITEKQQKAKEEMEKKESEQAKKEDKETSAKRGKEITGVKRQSKSEHETSDAKKSVEDRGKRCPTPEIQKKSTGDVPHTSVTGDSGSGKPFKIKGQPESGILRTGTFREDTDDTERNKAQREPLTRARSEEMGRIVPGLPSGWAKFLDPITGTFRYYHSPTNTVHMYPPEMAPSSAPPSTPPTHKAKPQIPAERDREPSKLKRSYSSPDITQAIQEEEKRKPTVTPTVNRENKPTCYPKAEISRLSASQIRNLNPVFGGSGPALTGLRNLGNTCYMNSILQCLCNAPHLADYFNRNCYQDDINRSNLLGHKGEVAEEFGIIMKALWTGQYRYISPKDFKITIGKINDQFAGYSQQDSQELLLFLMDGLHEDLNKADNRKRYKEENNDHLDDFKAAEHAWQKHKQLNESIIVALFQGQFKSTVQCLTCHKKSRTFEAFMYLSLPLASTSKCTLQDCLRLFSKEEKLTDNNRFYCSHCRARRDSLKKIEIWKLPPVLLVHLKRFSYDGRWKQKLQTSVDFPLENLDLSQYVIGPKNNLKKYNLFSVSNHYGGLDGGHYTAYCKNAARQRWFKFDDHEVSDISVSSVKSSAAYILFYTSLGPRVTDVAT
Turning to B1, the binding result in experiment [3] and in experiment [4] was “binds” throughout.
